# From PubChem BioAssay AID330 (DTP/NCI, 2004)
# The list does not hold the whole screen: it is rich in T/C values a quarter to a half above the control, in often repeated tests (any T/C) and in doses without a T/C. Further doses and runs are listed elsewhere. T/C is the treated group as % of the vehicle group. Some entries give survivors of the animals treated and no T/C: the source files T/C as zero there, which appears to mark a toxic dose or a test without result, not a measured value. Some survivor counts are full or nearly so, which does not show that the dose was tolerated: the source hardly ever lists a survival T/C far under the control, and the zero likely stands for such cases as well. Counts of survivors are from the toxicity check (mostly the fifth day) where no day follows; animals may have died later. Schedules are NCI's codes, taken here to give the interval after Q, in days (D) or hours (H), and the number of doses after X. Signs of the kind (2×) give the number of equal values in this list. Some entries hold several experiments; the results are listed from low to high. Some molecules as drawn cover several salts, stereoisomers or complexes of the source; a dose is that of the sample tested. Where survival is the endpoint, the PubChem record calls one and a half times the control and up active, and a quarter to a half above the control has no call in these data; cut-offs in other NCI protocols can differ. Some T/C values are followed by the survivors on the day toxicity was checked, most often the fifth; where none is given, no animal had died by that day.
# System: P388 leukemia ip, CD2F1 mice, survival T/C
# Experiment: NCI In Vivo Anticancer Drug Screen. Data for tumor model P388 Leukemia (intraperitoneal) in CD2F1 (CDF1) mice
# Details: T/C endpoint: median survival time, higher T/C = longer survival
# [1] = dose: 50.0 mg/kg/injection, schedule: Q01DX005 (ip), vehicle: saline with Tween-80
# [2] = dose: 100.0 mg/kg/injection, schedule: Q01DX005 (ip), vehicle: saline with Tween-80
# [3] = dose: 200.0 mg/kg/injection, schedule: Q01DX005 (ip), vehicle: saline with Tween-80
# [4] = dose: 25.0 mg/kg/injection, schedule: Q01DX009 (ip), vehicle: saline with Tween-80
# [5] = dose: 50.0 mg/kg/injection, schedule: Q01DX009 (ip), vehicle: saline with Tween-80
# [6] = dose: 240.0 mg/kg/injection, schedule: Q01DX005 (ip), vehicle: Klucel (hydroxypropylcellulose) (HPC)
# [7] = dose: 120.0 mg/kg/injection, schedule: Q01DX005 (ip), vehicle: saline with Tween-80
# [8] = dose: 240.0 mg/kg/injection, schedule: Q01DX005 (ip), vehicle: saline with Tween-80
# [9] = dose: 200.0 mg/kg/injection, schedule: Q01DX009 (ip), vehicle: saline with Tween-80
# [10] = dose: 75.0 mg/kg/injection, schedule: Q01DX009 (ip), vehicle: saline sonified
# [11] = dose: 100.0 mg/kg/injection, schedule: Q01DX009 (ip), vehicle: saline with Tween-80
# [12] = dose: 400.0 mg/kg/injection, schedule: Q01DX005 (ip), vehicle: saline with Tween-80
# [13] = dose: 100.0 mg/kg/injection, schedule: Q01DX005 (ip), vehicle: Klucel (hydroxypropylcellulose) (HPC)
# [14] = dose: 400.0 mg/kg/injection, schedule: Q01DX009 (ip), vehicle: saline with Tween-80
# [15] = dose: 100.0 mg/kg/injection, schedule: Q01DX009 (ip), vehicle: saline
# [16] = dose: 200.0 mg/kg/injection, schedule: Q01DX009 (ip), vehicle: saline
smiles,measurement,setting,value
CC12CCC(=O)C=C1CCC1C2CCC2(C)C(OC(=O)C34C=CC(=O)C3C3C=CC4CC3)CCC12 (configuration not stated),survivor count,"dose: 100.0 mg/kg/injection, schedule: Q01DX005 (ip), vehicle: distilled water + Tween-80",6 of 6
same,survivor count,"dose: 200.0 mg/kg/injection, schedule: Q01DX005 (ip), vehicle: distilled water + Tween-80",6 of 6
CCOC(=O)C(Cc1ccc(N(CCCl)CCCl)cc1)NC(=O)C(Cc1ccccc1)NC(=O)C(NC(=O)CNC(=O)C1CCCN1)C(C)C (configuration not stated),T/C,"dose: 5.0 mg/kg/injection, schedule: Q04DX003 (ip), vehicle: water",130 % of control
CSCNc1ncnc2c1ncn2C1OC(CO)C(O)C1O (configuration not stated),survivor count,"dose: 200.0 mg/kg/injection, schedule: Q04DX002 (ip), vehicle: saline with Tween-80",3 of 6
same,survivor count,"dose: 400.0 mg/kg/injection, schedule: Q04DX002 (ip), vehicle: saline with Tween-80",1 of 6
CC1OC(OCC2OC(Oc3c(-c4ccc(O)c(O)c4)oc4cc(O)cc(O)c4c3=O)C(O)C(O)C2O)C(O)C(O)C1O (configuration not stated),survivor count,[1],0 of 5
same,survivor count,[2],0 of 5
same,survivor count,[3],0 of 5
CN1/C(=C/C=C/C(I)=C/C=C/C2=[N+](C)c3ccccc3C2(C)C)C(C)(C)c2ccccc21,T/C,"dose: 12.5 mg/kg/injection, schedule: Q01DX009 (ip), vehicle: saline with Tween-80",125 % of control
same,T/C,[4],132 % of control
same,survivor count,[5],2 of 6
CC(=O)C1CCC2=C(C1)C(=O)c1cc3c(cc1C2=O)C1(c2ccccc2)OC3(c2ccccc2)C2C(=O)N(c3ccccc3)C(=O)C21 (configuration not stated),survivor count,[6],6 of 6
CN1C(=O)CC([Se]c2ccccc2)C1=O (configuration not stated),survivor count,"dose: 100.0 mg/kg/injection, schedule: Q04DX003 (ip), vehicle: Klucel (hydroxypropylcellulose) (HPC)",2 of 6
same,survivor count,"dose: 200.0 mg/kg/injection, schedule: Q04DX003 (ip), vehicle: Klucel (hydroxypropylcellulose) (HPC)",0 of 6 and 3 of 6
same,survivor count,"dose: 400.0 mg/kg/injection, schedule: Q04DX003 (ip), vehicle: Klucel (hydroxypropylcellulose) (HPC)",0 of 6
C=C1C(=O)C(CCC)=C(CC)C1O (configuration not stated),survivor count,[7],0 of 6
same,survivor count,[8],0 of 6
O=C(Nc1cccc2c(OC(=O)C(Cl)Cl)c(N=Nc3ccc(S(=O)(=O)Nc4nccs4)cc3)cc(N=Nc3ccc(S(=O)(=O)Nc4nccs4)cc3)c12)C(Cl)Cl,survivor count,[9],2 of 6 and 3 of 6
Cc1ccnc(NC2=CC(=O)C(=O)c3ccccc32)c1,T/C,[10],127 % of control
same,T/C,"dose: 150.0 mg/kg/injection, schedule: Q01DX009 (ip), vehicle: saline sonified",136 % of control
COc1ccc(/C=C/CC2Cc3cc4c(cc3OC2c2ccc(OC)cc2)OCO4)cc1 (configuration not stated),survivor count,"dose: 15.0 mg/kg/injection, schedule: Q01DX005 (ip), vehicle: saline with Tween-80",6 of 6 (2×)
same,survivor count,"dose: 30.0 mg/kg/injection, schedule: Q01DX005 (ip), vehicle: saline with Tween-80",6 of 6
same,survivor count,"dose: 60.0 mg/kg/injection, schedule: Q01DX005 (ip), vehicle: saline with Tween-80",6 of 6
same,survivor count,[7],6 of 6
same,survivor count,[8],6 of 6
ClCC(Br)CBr (configuration not stated),T/C,[10],125 % of control
same,T/C,"dose: 75.0 mg/kg/injection, schedule: Q01DX009 (ip), vehicle: saline with Tween-80",131 % of control
same,T/C,"dose: 112.0 mg/kg/injection, schedule: Q01DX009 (ip), vehicle: saline sonified",140 % of control [5 of 6 alive]
CCCN=C(N)c1ccc(NC(=O)c2ccc(C(=O)Nc3ccc(C(N)=NCCC)cc3)cc2)cc1,T/C,"dose: 3.13 mg/kg/injection, schedule: Q04DX003 (ip), vehicle: saline with Tween-80",145 % of control
same,survivor count,[11],6 of 6
CCCCCCCCCCN1CCOCCOCCN(CCCCCCCCCC)CCOCCOCC1,survivor count,[1],5 of 5
same,survivor count,[2],1 of 5
same,survivor count,[3],0 of 5
C=C(Cl)CSC(=S)N1CCOCC1,survivor count,[12],0 of 6
Cc1cn(CCCCCCCCCCCCOc2c3occc3cc3ccc(=O)oc23)c(=O)[nH]c1=O,survivor count,"dose: 50.0 mg/kg/injection, schedule: Q01DX005 (ip), vehicle: Klucel (hydroxypropylcellulose) (HPC)",6 of 6
same,survivor count,[13],6 of 6
CCC[CH2][Sn]1([CH2]CCC)[O]OC(c2ccc(C)cc2)[O]1 (configuration not stated),T/C,"dose: 1.5 mg/kg/injection, schedule: Q01DX009 (ip), vehicle: saline with Tween-80",143 % of control
O=Cc1ccco1,survivor count,[14],3 of 6
BrP(Cc1ccccc1-c1ccccc1CP(Br)(c1ccccc1)(c1ccccc1)c1ccccc1)(c1ccccc1)(c1ccccc1)c1ccccc1,survivor count,"dose: 12.5 mg/kg/injection, schedule: Q01DX009 (ip), vehicle: saline",1 of 6
same,survivor count,"dose: 25.0 mg/kg/injection, schedule: Q01DX009 (ip), vehicle: saline",0 of 6
same,survivor count,"dose: 50.0 mg/kg/injection, schedule: Q01DX009 (ip), vehicle: saline",0 of 6
same,survivor count,[15],0 of 6
same,survivor count,[16],0 of 6
CC(=O)OC1C=CCC2C(=O)OC(=O)C12 (configuration not stated),survivor count,"dose: 60.0 mg/kg/injection, schedule: Q01DX005 (ip), vehicle: Klucel (hydroxypropylcellulose) (HPC)",6 of 6
same,survivor count,[6],6 of 6
CC(C)(C)C(CCC(=O)O)CC(=O)O (configuration not stated),survivor count,"dose: 400.0 mg/kg/injection, schedule: Q04DX003 (ip), vehicle: saline",4 of 6
ClC1=CN(C2=NCCC2)CC1,survivor count,[5],0 of 6
same,survivor count,[11],0 of 6
same,survivor count,[9],0 of 6
CSC(SC)(C(=O)O)c1cc(-c2c(Cl)cccc2Cl)no1,survivor count,[8],3 of 6
NC(CSC(c1ccccc1)(c1ccccc1)c1ccc(CO)cc1)C(=O)O (configuration not stated),T/C,[4],136 % of control
same,T/C,[5],136 % of control
C[Si](C)(C)c1c[nH]c(=O)[nH]c1=O,survivor count,[9],4 of 5
same,survivor count,[14],3 of 6
CC(NNC(=S)N1CCN(c2ccccn2)CC1)c1ccccn1 (configuration not stated),survivor count,[13],6 of 6
same,survivor count,"dose: 200.0 mg/kg/injection, schedule: Q01DX005 (ip), vehicle: Klucel (hydroxypropylcellulose) (HPC)",2 of 6
CCCCN(CCCC)c1ccc(C(=NC(C)CCCN(CC)CC)c2ccc(N(C)C)cc2)cc1 (configuration not stated),survivor count,[1],1 of 5
same,survivor count,[2],0 of 5
same,survivor count,[3],0 of 5
CC1(C)COC(c2ccc(C(C)(C)C)cc2)=N1,survivor count,[5],0 of 6
same,survivor count,[11],0 of 6
same,survivor count,[9],0 of 6
Cc1ccc(S(=O)(=O)OC(=C(F)F)[Si](C)(C)C)cc1,survivor count,[9],6 of 6
Cn1c(=O)oc2cc(C(=O)CN3CCN(c4cccc(C(F)(F)F)c4)CC3)ccc21,survivor count,[6],4 of 6
Nc1cc(N)cc(Cc2ccccc2)c1,survivor count,[9],1 of 6
same,survivor count,[14],1 of 6
CC1=C(C(=O)Nc2ccccc2C)C(c2cccc([N+](=O)[O-])c2)C(C(=O)Nc2ccccc2C)=C(C)N1,survivor count,"dose: 120.0 mg/kg/injection, schedule: Q01DX005 (ip), vehicle: Klucel (hydroxypropylcellulose) (HPC)",6 of 6
same,survivor count,[6],6 of 6
CCN(CC)CCNc1cc(C)nc2c1ccc1c2ccc2c(NCCN(CC)CC)cc(C)nc21,survivor count,"dose: 100.0 mg/kg/injection, schedule: Q01DX009 (ip), vehicle: water",0 of 6
Cc1ccc(S(=O)(=O)N/N=C/c2ccc(Cl)cc2)cc1,T/C,[2],"107, 110, 112 [4 of 5 alive], 115 % of control"
same,survivor count,[3],5 of 5
same,survivor count,[12],3 of 5 and 4 of 5
CC[As](CCO)SC1CC(OC(=O)c2ccccc2)C(OC(=O)c2ccccc2)C(COC(=O)c2ccccc2)O1 (configuration not stated),T/C,"dose: 100.0 mg/kg/injection, schedule: Q01DX009 (ip), vehicle: saline + alcohol",127 % of control
same,survivor count,"dose: 200.0 mg/kg/injection, schedule: Q01DX009 (ip), vehicle: saline + alcohol",0 of 6
same,survivor count,[9],6 of 6
CN(C)CCC(=O)/C=C\c1ccccc1,survivor count,[15],2 of 6
same,survivor count,[16],0 of 6
